PubChem BioAssay AID540276 (National Center for Advancing Translational Sciences (NCATS), 2011)
The campaign covered roughly 300,000 compounds. About 5,400 (1.8%) were called active. Inconclusive results, whose numbers are uncertain, are shown with a selection of clear calls. Calls come from the whole dose curve; tested in HEK293 cells. Potencies beside an inconclusive call are fits to weak or partial responses and may not hold up.

Assay: qHTS for inhibitors of binding or entry into cells for Marburg Virus
Conditions: Marburg virus pseudotyped entry inhibition, cell reporter; activity change, negative = inhibition: at 37.8 µM (top of the series) unless noted
% is set by controls: 0 for no effect and ±100 for the full control effect; potency is the fitted concentration of half-maximal effect.

| SMILES | Potency | activity change, negative = inhibition |
| --- | --- | --- |
| Cc1ccc(NC(=S)NCc2ccc(F)cc2)c(C)c1 | inconclusive: 14.1 µM [inhibitor, single point] | – |
| O=[N+]([O-])c1ccc(S(=O)(=O)Nc2cccc(-c3ccc(N4CCCC4)nn3)c2)cc1 | – | inactive: 19.4% |
| CC(=O)Cc1nsc(Nc2ccc3c(c2)OCCO3)n1 | inconclusive: 2.82 µM [activator, single point] | – |
| O=C(COc1ccccc1)Nc1cc(NC(=O)COc2ccccc2)cc(C(=O)O)c1 | – | inactive: 9.42% |
| CC(=NNC(=S)N1CC2CCC(CC2)C1)c1nccs1 | inconclusive: 4.47 µM [inhibitor, full curve, poor fit] | – |
| COc1ccc2[nH]c(C)c(CCNS(=O)(=O)c3cc(F)ccc3OC)c2c1 | inconclusive: 3.55 µM [inhibitor, partial curve, poor fit] | – |
| Cn1c(=O)c2c(ncn2CCC(=O)N/N=C/c2ccncc2)n(C)c1=O | inconclusive: 1.58 µM [activator, partial curve, poor fit] | – |
| O=C1NCCCN1Cc1ccc(Cl)cc1 | inconclusive: 5.01 µM [inhibitor, single point] | – |
| C=CCOC(=O)C1C(=O)CC(C)(O)C(C(=O)OCC=C)C1c1ccc(OC)cc1 (stereo not drawn) | inconclusive: 3.98 µM [inhibitor, single point] | – |
| CC1(C(=O)NCCN2CCOCC2)C=CCN1C(=O)c1ccccc1 (stereo not drawn) | – | inactive: 1.13% |
| O=C1NC(=O)C(=Cc2ccc(N3CCN(C(=O)c4ccccc4)CC3)c([N+](=O)[O-])c2)C(=O)N1 | – | inactive: 22% [at 46.1 µM] |
| Cc1ccc(C(=O)Nc2nc3ccc(Cl)cc3s2)o1 | inconclusive: 2.82 µM [activator, partial curve, poor fit] | – |
| O=C(CSc1nc(-c2ccco2)cc(C(F)(F)F)n1)N1CCN(c2cccc(Cl)c2)CC1 | inconclusive: 20 µM [inhibitor, single point] | – |
| N#C/C(=C\c1ccc(-c2cc(Cl)ccc2Cl)o1)C(=O)Nc1cccc2ncccc12 | inconclusive: 20.6 µM [inhibitor, single point] | – |
| COc1ccc(CNC(=O)C(=O)NCC2OCCN2S(=O)(=O)c2ccc(F)cc2)cc1 (stereo not drawn) | – | inactive: -7.34% |
| CCc1cc2c(=O)n(Cc3ccco3)c(SCc3c(C)noc3C)nc2s1 | inconclusive: 1.3 µM [inhibitor, full curve, poor fit] | – |
| CCn1c(C2CCN(S(=O)(=O)c3ccc(OC)cc3)CC2)n[nH]c1=S | inconclusive: 0.794 µM [inhibitor, full curve, poor fit] | – |
| CCOC(=O)c1c(C)oc2ccc(NS(=O)(=O)c3ccc4c5c(cccc35)C(=O)N4)cc12 | inconclusive: 29.1 µM [inhibitor, single point] | – |
| COc1cc2c(cc1NC(=O)CSc1nnc(Cc3cccs3)n1Cc1ccco1)oc1ccccc12 | inconclusive: 29.1 µM [inhibitor, single point] | – |
| CCN(CC)C(=O)Cn1c(=O)n(Cc2ccc(C(=O)NCc3ccccc3Cl)cc2)c(=O)c2ccccc21 | inconclusive: 35.5 µM [activator, single point] | – |
| COc1ccc2c(c1)-c1nc(/N=C/c3c(O)ccc4ccccc34)sc1CC2 | inconclusive: 3.16 µM [activator, single point] | – |
| CCc1ccc(C2c3[nH]c4ccccc4c3CCN2C(=O)c2ccc(=O)n(C)n2)cc1 (stereo not drawn) | active: 11.2 µM | – |
| CCCCOC(=O)CSc1nnc(-c2cc(OC)c(OC)c(OC)c2)o1 | inconclusive: 29.1 µM [activator, single point] | – |

| SMILES | Potency | activity change, negative = inhibition |
| --- | --- | --- |
| COC(=O)/C(=N/Nc1ccccc1C)N1CCCc2ccccc21 | inconclusive: 1.16 µM [inhibitor, partial curve, poor fit] | – |
| CCOCC(=O)N1CCc2ccccc21 | inconclusive: 0.794 µM [activator, partial curve, poor fit] | – |
| O=C(Nc1ccc(-c2nnco2)cc1)c1ccccc1 | – | inactive: 0.543% |
| O=C(Nc1ccc(S(=O)(=O)N2CCCC2)cc1)c1ccc([N+](=O)[O-])cc1 | – | inactive: -12.7% [at 46.1 µM] |
| CCOC(=O)C1(CCc2ccccc2)CCN(Cc2ccc(OC)cc2)CC1 | inconclusive: 12.6 µM [inhibitor, single point] | – |
| CCn1nnc(NC(=O)c2cccnc2Cl)n1 | – | inactive: 13.6% [at 46.1 µM] |
| CN(c1cccc(Cl)c1)S(=O)(=O)c1cccc(C(=O)Nc2nc3ccccc3[nH]2)c1 | active: 22.4 µM | – |
| COc1cc2c(cc1NC(=O)CSCC(=O)O)oc1ccccc12 | – | inactive: -11.9% |
| CC(Sc1ncc(C#N)c(N)n1)C(=O)Nc1ccccc1 (stereo not drawn) | – | inactive: 29.1% [at 46.1 µM] |
| NS(=O)(=O)c1ccc(CCNC(=O)C2CCCO2)cc1 (stereo not drawn) | – | inactive: -24.9% |
| CCC(C)NC(=S)N1CCN(C(c2ccccc2)c2ccccc2)CC1 (stereo not drawn) | inconclusive: 35.5 µM [inhibitor, single point] | – |
| COc1ccc(CNC(=O)Cc2csc(NC(=O)Nc3ccccc3OC)n2)cc1 | inconclusive: 35.5 µM [inhibitor, single point] | – |
| O=C(O)c1cc2nccc(-c3ccc(F)cc3)n2n1 | inconclusive: 1.26 µM [inhibitor, full curve, poor fit] | – |
| CC(=O)Nc1ccc(S(=O)(=O)N2CCSc3ccccc32)cc1 | inconclusive: 5.62 µM [inhibitor, single point] | – |
| O=S(=O)(Nc1ccccc1)C1CCCCC1 | inconclusive: 3.98 µM [inhibitor, single point] | – |
| CCc1nc(NCC2CCCN2CC)c2nnn(Cc3ccccc3F)c2n1 (stereo not drawn) | inconclusive: 14.1 µM [inhibitor, partial curve, poor fit] | – |
| COc1cc(/C=C2/SC(=S)N(CCC(=O)Nc3ccccc3)C2=O)cc(OC)c1OC | inconclusive: 6.31 µM [inhibitor, partial curve, poor fit] | – |
| COC(=O)NC1(C(F)(F)F)NC(=O)N(C2CCCCC2)C1=O (stereo not drawn) | – | inactive: 0.437% |
| O=C(c1cccc(S(=O)(=O)N2CCOCC2)c1)N1CCCC(C(F)(F)F)C1 (stereo not drawn) | – | inconclusive: 2.67% [activator] |
| Fc1ccc(NCc2nnc(SCc3ccccc3)o2)cc1 | – | inactive: -1.1% |
| C/C(=N\N=C1\NC(=O)C(CC(=O)Nc2ccccc2F)S1)C1CCCCC1 (stereo not drawn) | – | inactive: 0.939% |
| Cc1cc(-c2n[nH]c(=S)n2/N=C/c2sccc2C)n[nH]1 | inconclusive: 0.631 µM [activator, partial curve, poor fit] | – |
| COc1ccccc1N=Cc1c(C)c(C#N)c2[nH]c3ccccc3n2c1=O | inconclusive: 35.5 µM [activator, single point] | – |

| SMILES | Potency | activity change, negative = inhibition |
| --- | --- | --- |
| Cc1ccccc1Cn1c(=O)n(Cc2ccc(Cl)cc2)c(=O)c2cccnc21 | – | inactive: -2.08% [at 46.1 µM] |
| Nc1ncc(-c2nnnn2-c2ccc(Cl)cc2)c(-c2ccc(Cl)cc2)n1 | inconclusive: 0.0517 µM [inhibitor, full curve, poor fit] | – |
| CCCCCCCCCCCCN1C(=O)CSC1c1cccnc1 (stereo not drawn) | inconclusive: 35.5 µM [inhibitor, partial curve, poor fit] | – |
| O=[N+]([O-])c1ccc(N2CCN(c3ccc(Cl)nn3)CC2)cc1NC1CC1 | inconclusive: 23.1 µM [inhibitor, single point] | – |
| COc1cc(Cn2c(N)c(C(=O)NCc3ccco3)c3nc4ccccc4nc32)cc(OC)c1OC | inconclusive: 29.1 µM [inhibitor, single point] | – |
| COCCCNc1nc(N)c([N+](=O)[O-])c(Nc2cc(OC)ccc2OC)n1 | inconclusive: 25.1 µM [inhibitor, partial curve, poor fit] | – |
| O=C(Nc1ccc(S(=O)(=O)N2CCCC2)cc1)c1ccc(F)cc1 | – | inactive: -2.28% [at 46.1 µM] |
| CC[C@@H](CO)NC(=O)[C@H]1C=C2c3cccc4[nH]cc(c34)C[C@H]2N(C)C1 | inconclusive: 1.12 µM [inhibitor, full curve, poor fit] | – |
| Cc1cccc(CN2C(=O)c3ccccc3S(=O)(=O)c3ccc(C(=O)NCCC4=CCCCC4)cc32)c1 | inconclusive: 22.4 µM [inhibitor, single point] | – |
| CN(C)S(=O)(=O)c1ccc(Cl)c(C(=O)Nc2nc3ccccc3[nH]2)c1 | – | inactive: -26% [at 46.1 µM] |
| CCc1nnc(NC(=O)c2ccc(OC)cc2)s1 | – | inactive: 16.8% |
| COC(=O)c1ccc(Nc2nnc(-c3ccc(C)c(S(=O)(=O)N4CCN(C)CC4)c3)c3ccccc23)cc1 | inconclusive: 35.5 µM [inhibitor, single point] | – |
| C=CCn1c(SCC(=O)NCCCC)nc2scc(-c3ccco3)c2c1=O | – | inactive: -17.6% |
| CCc1cccc(N(C(=O)c2csnn2)C(C(=O)NC(C)(C)C)c2ccncc2)c1 (stereo not drawn) | – | inconclusive: 40% [activator] [at 46.1 µM] |
| CN(C)c1ccc(Nc2nc(-c3cccnc3)cs2)cc1 | inconclusive: 35.5 µM [inhibitor, single point] | – |
| CC(=O)c1cccc(NC(=O)c2cc(=O)[nH]c3ccc(S(=O)(=O)N4CCOCC4)cc23)c1 | inconclusive: 0.562 µM [inhibitor, partial curve, poor fit] | – |
| Cc1cc(=O)oc2cc(OCCCC[n+]3ccccc3)ccc12 | inconclusive: 31.6 µM [activator, single point] | – |
| O=C(Nc1ccc2c(c1)OCCO2)c1cccc(Br)c1 | inconclusive: 14.1 µM [inhibitor, single point] | – |
| COc1ccc(-c2cc(OC(=O)c3ccc(Cl)cc3)c3c(C)oc(C)c3c(=O)c2)cc1 | – | inactive: -14.5% [at 46.1 µM] |
| CCC(=O)c1ccccc1OCCSc1nc(C)cc(=O)[nH]1 | – | inactive: -0.935% |
| CC1CCCN(C(=S)NCc2ccccc2)C1 (stereo not drawn) | inconclusive: 6.31 µM [activator, partial curve, poor fit] | – |
| COc1ccc(CN(C(=O)/C=C/c2ccco2)C2CCS(=O)(=O)C2)cc1 (stereo not drawn) | inconclusive: 6.31 µM [inhibitor, single point] | – |

Exported with tabs: 5 of the compounds above
SMILES	Potency	activity change, negative = inhibition
O=C1NC(=O)C(=Cc2ccc(N3CCN(C(=O)c4ccccc4)CC3)c([N+](=O)[O-])c2)C(=O)N1	–	inactive: 22% [at 46.1 µM]
O=C(Nc1ccc(-c2nnco2)cc1)c1ccccc1	–	inactive: 0.543%
O=C(Nc1ccc(S(=O)(=O)N2CCCC2)cc1)c1ccc([N+](=O)[O-])cc1	–	inactive: -12.7% [at 46.1 µM]
O=S(=O)(Nc1ccccc1)C1CCCCC1	inconclusive: 3.98 µM [inhibitor, single point]	–
CCCCCCCCCCCCN1C(=O)CSC1c1cccnc1 (stereo not drawn)	inconclusive: 35.5 µM [inhibitor, partial curve, poor fit]	–
